Experimental data reported in patent US20070196377A1.
Results are given in words; binding and its absence hold for the method and conditions named. Binding seen in cells or lysates may run through a third protein. Some entries that bind do so weakly or less than the wild type. Sequences can lack the tags named with a protein.

The chains behind the UniProt entries cited, without tags or fusion partners. Where a name states a change or a piece, a line headed by the entry shows the natural chain unless it says otherwise.
UniProt P60766: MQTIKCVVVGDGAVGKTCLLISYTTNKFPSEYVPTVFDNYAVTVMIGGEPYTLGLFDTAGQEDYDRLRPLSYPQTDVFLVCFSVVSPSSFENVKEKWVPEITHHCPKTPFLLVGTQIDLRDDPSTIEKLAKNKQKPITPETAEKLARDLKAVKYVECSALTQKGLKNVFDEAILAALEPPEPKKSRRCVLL

Columns and labels:
[1] = target: RhoA expressed as an N-terminal GST-fusion protein (Canis lupus familiaris (Dog) (Canis familiaris)) (UniProt P24406); test: GST pull-down, anti-FLAG Western blot
[2] = target: Cdc42 expressed as an N-terminal GST-fusion protein (Mus musculus (Mouse)) (UniProt P60766); test: GST pull-down, anti-FLAG Western blot
[3] = target: RhoA expressed as an N-terminal GST-fusion protein (Canis lupus familiaris (Dog) (Canis familiaris)) (UniProt P24406); test: GST pull-down, anti-FLAG Western blot (FIG. 2)
[4] = target: Cdc42 expressed as an N-terminal GST-fusion protein (Mus musculus (Mouse)) (UniProt P60766); test: GST pull-down, anti-FLAG Western blot (FIG. 2)

Measured: binding

B1: hj03796 DH/PH (C-terminal FLAG-tagged protein) (protein, not shown: small tags and cut ends)
chain: MKLSYLGRVVREIVETERMYVQDLRSIVEDYLLKIIDTPGLLKPEQVSALFGNIENIYALNSQLLRDLDSCNSDPVAVASCFVERSQEFDIYTQYCNNYPNSVAALTECMRDKQQAKFFRDRQELLQHSLPLGSYLLKPVQRILKYHLLLQEIAKHFDEEEDGFEVVEDAIDTMTCVAWYINDMKRRHEHAVRLQEIQSLLINWKGPDLTTYGELVLEGTFRVHRVRNERTFFLFDKTLLITKKRGDHFVYKGNIPCSSLMLIESTRDSLCFTVTHYKHSKQQYSIQAKTVEEKRNWTHHIKRLILENHHATIPQKAKEAILEMDSYYPNRYRCSPERLKKAWSSQDEVSTNVRQGRRQSEPTKHL
binds: [1] | [2] | [3] | [4]
